Assay results as given in PMC9441067.
These are yes or no findings as the source states them, for the method shown. In cells and extracts the contact can be indirect. Some entries that bind do so weakly or less than the wild type. For some assays here: Where a sequence is shown, tags or fusion partners need not be part of it. Blank lines part the entries; values can stand above or below the binder they belong to.

Chains of the proteins cited; added tags and fusions are not shown.
UniProt Q96EB6: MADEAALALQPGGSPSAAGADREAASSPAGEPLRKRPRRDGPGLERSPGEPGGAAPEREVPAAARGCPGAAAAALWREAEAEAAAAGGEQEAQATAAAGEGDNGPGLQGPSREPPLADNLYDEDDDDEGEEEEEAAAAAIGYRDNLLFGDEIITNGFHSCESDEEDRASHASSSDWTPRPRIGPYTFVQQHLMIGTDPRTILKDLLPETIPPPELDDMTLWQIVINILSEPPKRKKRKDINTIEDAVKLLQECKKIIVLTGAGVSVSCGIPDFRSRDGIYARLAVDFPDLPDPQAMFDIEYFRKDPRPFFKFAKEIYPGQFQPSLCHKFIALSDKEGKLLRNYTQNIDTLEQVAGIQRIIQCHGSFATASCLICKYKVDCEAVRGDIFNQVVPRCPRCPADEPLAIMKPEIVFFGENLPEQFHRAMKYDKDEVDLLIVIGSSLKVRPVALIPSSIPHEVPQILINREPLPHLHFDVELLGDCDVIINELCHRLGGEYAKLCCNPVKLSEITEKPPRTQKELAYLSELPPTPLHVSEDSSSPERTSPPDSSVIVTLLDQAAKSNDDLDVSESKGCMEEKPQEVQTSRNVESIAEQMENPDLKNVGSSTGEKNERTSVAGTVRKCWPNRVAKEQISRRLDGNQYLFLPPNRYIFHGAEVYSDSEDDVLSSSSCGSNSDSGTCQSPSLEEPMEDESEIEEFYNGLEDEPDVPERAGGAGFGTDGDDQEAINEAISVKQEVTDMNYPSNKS

Columns and labels:
[1] = target: Flag-tagged Sirtuin1 (Sirt1) (UniProt Q96EB6); assay: co-IP; HEK293T cells transfected with His-tagged HO1 and Flag-tagged Sirt1 plasmids; lysates immunoprecipitated with anti-His or anti-Flag antibody and immunoblotted with the other one
[2] = target: endogenous Sirtuin1 (Sirt1), in THP-1 and MV4-11 cells (human (endogenous in THP-1 and MV4-11)) (UniProt Q96EB6); assay: co-IP; THP-1 and MV4-11 cell lysates immunoprecipitated with anti-HO1 or anti-Sirt1 antibody and immunoblotted with anti-Sirt1 or anti-HO1 antibody

binding [1]: binds
B1: His-tagged heme oxygenase 1 (HO1) (enzyme, UniProt P09601 1-288)
chain: MERPQPDSMPQDLSEALKEATKEVHTQAENAEFMRNFQKGQVTRDGFKLVMASLYHIYVALEEEIERNKESPVFAPVYFPEELHRKAALEQDLAFWYGPRWQEVIPYTPAMQRYVKRLHEVGRTEPELLVAHAYTRYLGDLSGGQVLKKIAQKALDLPSSGEGLAFFTFPNIASATKFKQLYRSRMNSLEMTPAVRQRVIEEAKTAFLLNIQLFEELQELLTHDTKDQSPSRAPGLRQRASNKVQDSAPVETPRGKPPLNTRSQAPLLRWVLTLSFLVATVAVGLYAM

binding [2]: binds
B2: heme oxygenase 1 (HO1), in THP-1 and MV4-11 cells (enzyme, UniProt P09601 1-288)
chain: B1 chain
